## Primary screen of a compound library

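Whole-cell assay for inhibitors of Mycobacterium tuberculosis growth, labelled Cornell in the record; the read-out is not stated. The concentration is filed as 10 mM, unlikely as a test dose, so the dose is not known. The record gives no direction; compounds strong in two other growth screens of this library score well above the rest, so higher reads as stronger inhibition. Of about 53,000 compounds tested this way, about 900 (1.7%) reached 50% or more in at least one test.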

Each number is a percent effect as filed.
How 0% and 100% were set is not recorded. Most values in the screen are low, and negative values occur.
Compounds were drawn at random from those tested, without regard to their results.

Compound | effect
CN1C[C@@H](NC(=O)c2cc(F)cc(F)c2)C[C@H]1C(=O)NCc1ncc[nH]1 | 9.163
CN1CCC(C)(CNC(=O)c2ccc(SCc3cccnc3)cc2)CC1 | -5.828
Cc1cccc(OCC2CCCN(C(=O)CN(C)C3CCNCC3)C2)c1 (stereo not given) | -27.09
COc1cc(C2Nc3cc(Cl)ccc3C3=NCCN32)ccc1O (stereo not given) | 80.22
Cc1ncnc2c1CCN(C(=O)c1ccncc1)CC2.O=C(O)C(F)(F)F | -27.56
O=C(c1ccc(Cl)cc1)N1CCC2(CC1)C(=O)Nc1ccccc12 | -18.87
Cc1nc(C(C)NC(=O)c2cn(CCC3CCCCC3)nn2)n[nH]1 (stereo not given) | 12.35
Cc1cc(C)n(CCNC(=O)c2cc(C3CC3)n[nH]2)n1 | -10.26
O=C(NS(=O)(=O)Cc1ccon1)c1ccsc1 | 21.12
Cn1cnc(S(=O)(=O)NCC2(O)CCc3ccccc3C2)c1 (stereo not given) | -41.24
O=C(NCCN1CCOCC1)Nc1cnc2cc(Cl)ccc2c1O | -4.322
O=C(O)C(F)(F)F.[H][C@@]12C[C@H](C(=O)NCc3cccnc3)[C@@]([H])(CN(C(=O)NC)C1)O2 | 18.98
O=C(CCc1cc2n(n1)CCCNC2)NCCCSC1CCCCC1 | -13.76
OC(COCc1ccccc1F)CN1CCC(Cn2cccn2)CC1 (stereo not given) | 6.648
O=C(NCC1CC1)C1=NOC2(CCN(Cc3ccsc3)C2)C1 (stereo not given) | 3.653
COc1cn(-c2ccccc2)nc1C(=O)NCCN1CCCC(C)C1 (stereo not given) | -24.88
Cc1noc(C)c1-c1ccc(C2CCCN2C(=O)c2cnn(C)c2)nc1 (stereo not given) | 1.498
Cc1nn(C)c(Cl)c1C1CCCN1C(=O)c1ccc(O)nc1 (stereo not given) | -43.38
O=C(CC1CNCCO1)N1CCC(c2cc(N3CCCC3)ncn2)CC1 (stereo not given) | -14.16
O=C(NCCN1CCCCC1)C(c1ccccc1)N1CCCC1 (stereo not given) | 12.03
CCS(=O)(=O)N1CCOC2(COCCN(c3nccs3)C2)C1 (stereo not given) | -17.01
CC(=O)NCCCSC1CCN(c2ccccc2F)C1=O (stereo not given) | -14.54
Cc1ncsc1C(=O)NCc1cc2n(n1)CCN(C(=O)N(C)C)C2 | 39.28
CCCn1ccnc1CN1CCCC(CC)(CO)C1 (stereo not given) | -28.84
Cn1nccc1CNC(=O)NC1CCN(c2ncccc2Cl)C1 (stereo not given) | 16.4
COCc1nc2n(n1)CCCC2Nc1nc(C(C)C)ns1 (stereo not given) | -46.12
CCc1nccn1C1CCCN(C(=O)c2cnc3ccccc3n2)C1 (stereo not given) | 11.65
c1ccc(N2CCc3ncnc(C4CC4)c3CC2)nc1 | 18.35
CCCc1cc(CNc2cc(CCC)nc3ccnn23)on1 | 10.35
c1csc(N2CCN(c3ncnc4sccc34)CC2)n1 | 8.465
Cc1cc(C(=O)NCc2ccc(N3CCCC(C(N)=O)C3)cc2)on1 (stereo not given) | -89.9
COc1ccc(CNC(=O)Nc2ccc(=O)n(C)c2)cc1 | 26.7
CCn1cc(CN2CCC3(CC2)c2ccccc2CC3O)cn1 (stereo not given) | 17.15
c1cnc(-c2nc(CN3CCn4c(nnc4C4CC4)C3)cs2)nc1 | -12.17
COc1ccc(C(C(=O)O)N2CCC(Cn3cccn3)CC2)c(OC)n1 (stereo not given) | -17.9
Cc1cnc(NC(=O)NCCOc2ncccc2Cl)s1 | 6.124
COc1cccc(-c2noc(C3CCN(CC(N)=O)C3)n2)c1 (stereo not given) | 37.45
CN(C)CCOC1CC2(CCN(c3cnccn3)CC2)c2ccccc21.O=C(O)C(F)(F)F (stereo not given) | -38.38
O=C(CCn1cccn1)N1CCC(c2nnc(-c3ccccn3)o2)CC1 | 26.4
Cc1cccc(C(C)CNC(=O)N2CCOCC3(CCOCC3)C2)c1 (stereo not given) | 31.15
Cc1ccsc1[C@@H]1CCN(C(=O)CCOc2ccccc2)C[C@H]1O | 22.29
CC1=Nc2c(c(O)nn2C(C)C)C(c2cccnc2)S1 (stereo not given) | 3.727
CC(=O)N1CCCc2sc(C(=O)Nc3ccc(C)nc3)nc21 | -24.88
Cc1cc(C(=O)N2CCN[C@H](C)C2)c2ccc(F)cc2n1 | -9.516
Cn1cc(CN2CCCC(c3nccnc3-c3cccc(F)c3)C2)cn1 (stereo not given) | -16.44
Cc1n[nH]c(C)c1NC(=O)CN1CCN(c2nccs2)C(C)C1 (stereo not given) | 5.388
COCc1n[nH]c2c1CN(C(=O)c1ccncc1)C2.O=C(O)C(F)(F)F | 14.25
CSc1ccccc1NC(=O)C1CSc2ncc(C)c(=O)n2C1 (stereo not given) | 16.06
Cn1ccc(C(=O)N2CCC(Cc3cnc4[nH]ccc4c3)C2)n1 (stereo not given) | -15.67
O=C(CCc1ccc2c(c1)CCO2)Nc1nnn[nH]1 | 9.454
N#Cc1cccnc1N1CCN(C(=O)CCC(=O)c2cccs2)CC1 | -22.68
[H][C@]12COC[C@@H](NS(C)(=O)=O)[C@@]1([H])CN(Cc1ccoc1)C2 | 22.53
COCC(Nc1nc(N(C)C)nc2c1CCNCC2)c1ccccn1 (stereo not given) | 18.86
CCN(Cc1ccncc1)CC1(C)Cc2c(N)nc(N)nc2O1 (stereo not given) | -28.19
Cc1cc(C)n(CC2CCCCN2CCC(=O)Nc2cc(C)on2)n1 (stereo not given) | 10.34
Cc1ccnc(C2CCCN2C(=O)CN(C)C)n1 (stereo not given) | -20.18
CC(NC(=O)NCCCn1cccn1)c1ccccn1 (stereo not given) | -6.373
CCC(NC(=O)C1CCN(C(C)C)CC1)c1cn2cccnc2n1 (stereo not given) | -25.48
CCc1nnc(Nc2cccc(C3CCN(CC4CC4)CC3)n2)s1 | -7.604
CC(NC(=O)Cc1cccs1)c1nnc2n1CCC2 (stereo not given) | -12.95
Cc1cnn(CC2CCCN2CC(=O)NC2CCN(C3CC3)CC2)c1 (stereo not given) | 8.533
COCCN1C(=O)C2(CCC(C(=O)Nc3ccccn3)CC2)N=C1C (stereo not given) | -1.476
Cc1c(CNC2CCN(c3ccccc3OC(F)F)C2)cnn1C (stereo not given) | -3.564
CN1CCN(S(=O)(=O)c2cccc(F)c2)Cc2cccnc21.O=C(O)C(F)(F)F | 1.768
c1ccc(Oc2ccc(CNCC3CNc4ccnn4C3)cn2)cc1 (stereo not given) | -38.73
Cc1cccc(N(C)S(=O)(=O)c2cc(C(=O)O)cs2)c1 | -20.78
CC(C)N1CCC(Cc2cc(-c3cc(F)ccc3C(=O)O)ncn2)C1 (stereo not given) | 3.651
Cn1cnnc1C1CCN(C(=O)CCCOc2ccccc2F)CC1 | -1.45
O=C(O)C(F)(F)F.[H][C@@]12CN(Cc3ccco3)C[C@]1([H])C(=O)N(c1cncnc1)C2 | -5.231
CCn1cc(-c2n[nH]c(=O)n2-c2ccc(OC)c(OC)c2)c(C)n1 | -56.18
O=C(CC1CC1)N1CCC2(CC(=O)N(c3cccc(F)c3)C2)C1 (stereo not given) | 17.78
[H][C@@]12COC[C@@H](CC(=O)NCc3cnc(C)cn3)[C@]1([H])CN(C1CCC1)C2 | -7.854
CC(C)n1[nH]c(=O)c2c1NC(=O)CC2c1cccnc1 (stereo not given) | -13.49
Cc1csc(CN(CC2CCCO2)C(=O)c2occc2C)n1 (stereo not given) | 23.65
Cc1ccc(N2CC[C@H](OCC3CC3)[C@@H]2Cc2cnn(C)c2)nn1 | 21.77
[H][C@]12CCN(C(=O)c3ccccc3C)C[C@@]1([H])OCCN(c1ncccn1)C2 | 37.15
Cc1cnc(-c2nc(C3CCN(Cc4ccccc4O)CC3)no2)cn1 | 13.04
CC(=O)N1CCCC2(CN(Cc3ccc(C)s3)CCO2)C1.O=C(O)C(F)(F)F (stereo not given) | 14.55
CC(=O)NC(C)c1ccc(OCC2CC2)c(F)c1 (stereo not given) | -4.262
CC(C)c1cc(C(=O)NCC(O)C2CCOCC2)nn1C(C)(C)C (stereo not given) | -43.1
Cc1ccsc1C(=O)N1CCC(Nc2cccnc2)CC1 | 15.5
O=C(O)C(F)(F)F.O=C(O)C(F)(F)F.O=c1ccc2c(n1Cc1cccnc1)CCN(CC1CCOC1)CC2 (stereo not given) | -39.32
O=C(NCC1CCS(=O)(=O)C1)c1ccc2cccc(Cl)c2n1 (stereo not given) | 20.34
CCc1ccc(NC(C(N)=O)c2ccc(F)cc2)cc1 (stereo not given) | 17.32
CCOc1cc(NC(=O)N2CCC(c3nnc[nH]3)CC2)ccc1C | 18
[H][C@@]12CS(=O)(=O)C[C@]1([H])N(Cc1ccc(F)c(C)c1)CCN2C(=O)C1CCC1 | 4.969
Cc1nn(C)cc1C(=O)NCc1csc(C2CC2)n1 | 0.3942
Cc1nc(-c2ccccc2)n(CC(=O)N(C(C)C)C(C)C)n1 | 3.746
CCn1cc(SCC(=O)N2CCCC(O)(CO)C2)c2ccccc21 (stereo not given) | -3.182
Cc1noc(C)c1CCC(=O)NC(C)c1nnc2n1CCC2 (stereo not given) | -54.87
CN(C)CCNc1ncccc1CNC(=O)Nc1cc(F)cc(F)c1 | 37.44
Cc1ccc(Cl)cc1N1CCN(CC(=O)NCc2ccco2)CC1 | 15.76
CCOc1cc(=O)n2c(c1C(=O)OCc1cccc(C)c1)CCCC2 | 31.07
Cc1nc(CN(C)C2CCN(Cc3c(C)noc3C)C2)no1 (stereo not given) | 5.149
Cc1cn(-c2ccccc2)nc1NS(=O)(=O)c1cc(C(=O)O)cs1 | -5.988

Some entries from above, unchanged:

| Compound | effect |
|---|---|
| `COCCN1C(=O)C2(CCC(C(=O)Nc3ccccn3)CC2)N=C1C` (stereo not given) | -1.476 |
| `O=C(CC1CNCCO1)N1CCC(c2cc(N3CCCC3)ncn2)CC1` (stereo not given) | -14.16 |
| `O=C(CCc1cc2n(n1)CCCNC2)NCCCSC1CCCCC1` | -13.76 |
| `Cc1nc(-c2ccccc2)n(CC(=O)N(C(C)C)C(C)C)n1` | 3.746 |
| `O=C(O)C(F)(F)F.[H][C@@]12CN(Cc3ccco3)C[C@]1([H])C(=O)N(c1cncnc1)C2` | -5.231 |
| `O=C(NCC1CCS(=O)(=O)C1)c1ccc2cccc(Cl)c2n1` (stereo not given) | 20.34 |
| `Cc1cnc(NC(=O)NCCOc2ncccc2Cl)s1` | 6.124 |
| `[H][C@@]12COC[C@@H](CC(=O)NCc3cnc(C)cn3)[C@]1([H])CN(C1CCC1)C2` | -7.854 |
| `COc1ccc(CNC(=O)Nc2ccc(=O)n(C)c2)cc1` | 26.7 |
| `[H][C@]12CCN(C(=O)c3ccccc3C)C[C@@]1([H])OCCN(c1ncccn1)C2` | 37.15 |
| `Cn1cnc(S(=O)(=O)NCC2(O)CCc3ccccc3C2)c1` (stereo not given) | -41.24 |
| `CC(C)N1CCC(Cc2cc(-c3cc(F)ccc3C(=O)O)ncn2)C1` (stereo not given) | 3.651 |

Source: ChEMBL document CHEMBL3988442, “University of Dundee, Small-Polar-MMV Screening Library” (2021).